Values quoted from earlier work as cited in patent US11203770B2, “Methods for producing caprylic acid and/or caprylate” (Cornell University, priority 2016, dated 2021).
At least one compound was matched to its structure with a doubt left.

Details: cited from earlier work

In the case of `CCCCCC(=O)O` [n-caproic acid], the pKa is given as 4.88.
